# Measurements from PubChem BioAssay AID1671190 (National Center for Advancing Translational Sciences (NCATS), 2021).
# By UniProt entry, the sequences of proteins in these tests, tags left out. Where a name states a change or a piece, a line headed by the entry shows the natural chain unless it says otherwise.
# UniProt P18054: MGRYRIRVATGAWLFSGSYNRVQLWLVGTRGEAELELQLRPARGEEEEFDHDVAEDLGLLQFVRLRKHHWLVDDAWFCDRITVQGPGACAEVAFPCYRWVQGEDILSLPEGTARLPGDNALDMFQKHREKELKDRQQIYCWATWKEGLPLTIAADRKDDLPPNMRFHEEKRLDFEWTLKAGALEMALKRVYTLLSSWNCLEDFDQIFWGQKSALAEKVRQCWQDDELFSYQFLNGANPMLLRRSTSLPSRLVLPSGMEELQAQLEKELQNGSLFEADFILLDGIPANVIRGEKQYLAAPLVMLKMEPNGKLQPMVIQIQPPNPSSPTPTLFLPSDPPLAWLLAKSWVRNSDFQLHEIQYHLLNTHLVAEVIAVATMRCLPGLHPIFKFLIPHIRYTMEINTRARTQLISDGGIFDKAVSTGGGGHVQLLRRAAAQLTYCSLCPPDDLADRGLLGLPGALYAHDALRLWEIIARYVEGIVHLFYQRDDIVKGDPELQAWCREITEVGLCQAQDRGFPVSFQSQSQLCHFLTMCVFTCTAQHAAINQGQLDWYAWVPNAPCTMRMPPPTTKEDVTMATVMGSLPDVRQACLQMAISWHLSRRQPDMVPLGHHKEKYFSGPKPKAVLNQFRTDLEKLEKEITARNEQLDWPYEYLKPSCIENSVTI
# Several values for one entry are separate records, joined by “and”; a condition that tells them apart may be missing. Equal values may be shown once. The campaign covered roughly 580,000 compounds. About 6,100 (1.1%) were called active. The shares of active, inactive and inconclusive entries below differ from those in the screen. The call rests on the fitted dose curve; in most records, active means well fitted inhibition curve with a large enough effect; inconclusive means small, poorly fitted or top-dose-only effect, or another doubt; inactive means no such curve, though single readings can be large or run the other way. Where the call is inconclusive, the potency comes from a doubtful curve fit.
# Biological target: Polyunsaturated fatty acid lipoxygenase ALOX12 (Homo sapiens) (UniProt P18054)
# Assay: Primary qHTS assay for inhibitors of human arachidonate 12S-lipoxygenase (ALOX12): Round 2
# Settings: purified 12hLO, xylenol orange hydroperoxide absorbance; activity change, negative = inhibition: at 108 µM (top of the series) unless noted
# Procedure, shortened: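 Hydroperoxide product was detected by ferrous iron/xylenol orange as the 573 to 405 nm absorbance ratio. Arachidonic acid at 40 uM (final) was turned over for 30 min at room temperature by 150 nM human 12hLO, pH 7.0 Hepes buffer, after 15 min compound preincubation.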
# On the % scale 0 is the no-effect control and ±100 the full control effect; potency means the concentration at half of the fitted maximal effect.
SMILES,Potency,"activity change, negative = inhibition"
O=C1CC2(CCN(CC3CC3)CC2)Oc2ccccc21,"inconclusive: 7.08 µM [inhibitor, full curve]",–
O=C(NC1CCCC(C(F)(F)F)C1)c1cc2c(F)cccc2s1 (configuration not stated),"inconclusive: 35.5 µM [inhibitor, single point]",–
CN(Cc1cnc2nc(N)nc(N)c2n1)c1ccc(C(=O)NC(CCC(=O)O)C(=O)O)cc1 (configuration not stated),"inconclusive: 28.2 µM [inhibitor, single point]",–
C=CCn1c(SCCO)nc2c1c(=O)n(C)c(=O)n2C,–,inactive: -19.5%
O=C(NC(c1ccc(-c2ccccc2)cc1)c1cnccn1)C1CCN(CCOc2ccc(F)cc2)CC1 (configuration not stated),"inconclusive: 39.8 µM [inhibitor, partial curve, poor fit]",–
CC1CCCCN1C(=O)COC(=O)c1cc([N+](=O)[O-])ccc1N1CCOCC1 (configuration not stated),"inconclusive: 50.1 µM [inhibitor, partial curve, poor fit]",–
CC(C)(C)C1=NN=C2c3ccccc3C(=O)C21 (configuration not stated),"inconclusive: 63.1 µM [inhibitor, partial curve, poor fit]",–
FC(F)(F)c1cnc(N2CCSCC2)c(Cl)c1,"inconclusive: 112 µM [inhibitor, single point]",–
O=C(CCN1CCC(c2ccccc2)C1)c1cccs1 (configuration not stated),"inconclusive: 5.01 µM [inhibitor, full curve, poor fit] and inconclusive: 89.1 µM [inhibitor, single point]",–
O=C(Nc1ccc(SC(F)F)cc1)c1cc(-c2ccccc2)nc2ccccc12,active: 39.8 µM,–
O=C(Cc1cccs1)Nc1nc(-c2ccc(F)c(F)c2)cs1,"inconclusive: 35.5 µM [inhibitor, partial curve, poor fit]",–
CN(C)c1ccc(/C(=N\O)c2ccccc2)cc1,–,inconclusive: -31.1% [inhibitor]
CN(C)S(=O)(=O)n1cc(/C=C(\NC(=O)c2ccccc2)C(=O)N2CCCC2)c2ccccc21,–,inactive: -24.4%
CCOC(=O)c1c(-c2ccc(C)c(C)c2)csc1NC(=O)C1CC=CCC1C(=O)O (configuration not stated),"inconclusive: 35.5 µM [inhibitor, single point]",–
c1ccc2nc(N3CCOCC3)c(N3CCCC3)nc2c1,"inconclusive: 100 µM [inhibitor, single point]",–
CC1(C)O[C@H]2[C@@H](O1)[C@@H](C(=O)Oc1ccc3ccccc3c1)O[C@@H]1OC(C)(C)O[C@@H]12,"inconclusive: 44.7 µM [inhibitor, partial curve, poor fit]",–
CCCc1nc2ccc(Br)cn2c1Cc1ccccc1,–,inactive: -82.3%
CCN(CC)S(=O)(=O)c1ccc(OC)c(NC(=S)Nc2cccc(C)c2C)c1,"inconclusive: 50.1 µM [inhibitor, partial curve, poor fit]",–
Cc1ccc(C)c(NC(=O)CSc2cccc3cccnc23)c1,"inconclusive: 2.51 µM [inhibitor, partial curve, poor fit]",–
Cc1cc2ncc(C(=O)N3CCOCC3)cn2n1,–,inactive: -14.7% [at 176 µM]
CCOC(=O)c1cc2c(=O)n3ccccc3nc2n(C)c1=NC(=O)c1cc2ccccc2o1,"inconclusive: 56.2 µM [inhibitor, partial curve, poor fit]",–
CCNC(=O)COC(=O)c1cc(Cl)cc(Cl)c1,–,inactive: -45.5%
COc1ccccc1N(O)C1CC(=O)N(c2ccc(Br)cc2)C1=O (configuration not stated),"inconclusive: 44.7 µM [inhibitor, partial curve, poor fit]",–

# 3 entries picked at random from the list so far:
SMILES,Potency,"activity change, negative = inhibition"
Cc1ccc(C)c(NC(=O)CSc2cccc3cccnc23)c1,"inconclusive: 2.51 µM [inhibitor, partial curve, poor fit]",–
CCOC(=O)c1cc2c(=O)n3ccccc3nc2n(C)c1=NC(=O)c1cc2ccccc2o1,"inconclusive: 56.2 µM [inhibitor, partial curve, poor fit]",–
O=C(CCN1CCC(c2ccccc2)C1)c1cccs1 (configuration not stated),"inconclusive: 5.01 µM [inhibitor, full curve, poor fit] and inconclusive: 89.1 µM [inhibitor, single point]",–

# Next part:

SMILES,Potency,"activity change, negative = inhibition"
O=C(Nc1ccccc1NC(=O)c1ccncc1)c1ccncc1,–,inactive: 0.655%
O=S(=O)(NCc1ccc(Cl)cc1)c1ccc(N2CCCCS2(=O)=O)cc1,"inconclusive: 112 µM [inhibitor, partial curve, poor fit]",–
O/N=C/c1ccccc1I,–,inactive: 9.66%
OC1COC(OCC2OC(OCc3ccccc3)C(O)C(O)C2O)C(O)C1O (configuration not stated),"inconclusive: 31.6 µM [inhibitor, partial curve, poor fit]",–
O=C(NCCCN1CCc2ccccc2C1)Nc1ccc(Cl)cc1,"inconclusive: 31.6 µM [inhibitor, partial curve]",–
O=C(COC(=O)CCNS(=O)(=O)c1ccccc1)Nc1cc(Cl)ccc1Cl,"inconclusive: 4.47 µM [inhibitor, full curve, poor fit]",–
Cc1ccc(C(=O)OCC(=O)c2cc(C)n(CC3CCCO3)c2C)cc1 (configuration not stated),–,inactive: -2.8%
O=c1cc(-c2ccc(O)c(O)c2)oc2c(C3O[C@H](CO)[C@@H](O)[C@H](O)[C@H]3O)c(O)cc(O)c12 (some centres not stated),"inconclusive: 2 µM [inhibitor, full curve]",–
CCOC(=O)C1=C(C)N=C2c3ccccc3C(=O)C2C1c1ccc(Cl)cc1 (configuration not stated),"inconclusive: 89.1 µM [inhibitor, partial curve, poor fit]",–
Cc1[nH]c2ccccc2c1Cc1n[nH]c(=S)o1,"inconclusive: 79.4 µM [inhibitor, single point]",–
COC(=O)c1cccc(Oc2nc3c(c(=O)n(C)c(=O)n3C)n2Cc2ccc(C)cc2)c1,–,inactive: 21.2%
O=C(CCCCn1c(=S)[nH]c2ccsc2c1=O)NCc1ccc2c(c1)OCO2,"inconclusive: 31.6 µM [inhibitor, partial curve, poor fit]",–
O=c1c(-c2cccc(Cl)c2)nc2cncnc2n1Cc1ccccc1,"inconclusive: 39.8 µM [inhibitor, partial curve, poor fit]",–
COc1cc(N2CCCC2)ccc1[N+](=O)[O-],"inconclusive: 11.2 µM [inhibitor, partial curve]",–
O=C(CCC1CCCCC1)NCCC12CC3CC(CC(C3)C1)C2,"inconclusive: 15.8 µM [inhibitor, partial curve]",–
CN1CCN(c2ncc3nc(-c4cccs4)c(=O)n(-c4ccccc4)c3n2)CC1,"inconclusive: 112 µM [inhibitor, single point]",–
Cc1ccc2c(c1)c1c(n2CC(O)CN2C(=O)CNC2=O)C(=O)CCC1 (configuration not stated),"inconclusive: 44.7 µM [inhibitor, partial curve, poor fit]",–
O=C(Nc1ccc(Br)cc1)C1CCCCC1,–,inactive: 16.3%
COc1cccc(CN(C)C(=O)CNC(=O)c2ccc(-c3ccccc3)cc2)c1OC,–,inactive: 12.7%
Cc1ccc(/C=N/Nc2ccc(Cl)c(Cl)c2)c(C)c1,"inconclusive: 0.794 µM [inhibitor, full curve, poor fit]",–
CCOc1ccc(Nc2nc(C)c(NC(=O)c3cccc(OC)c3)c(Nc3ccc(OCC)cc3)n2)cc1,"inconclusive: 15.8 µM [inhibitor, partial curve, poor fit]",–
O=C(CCNC(=O)c1ccccc1)N=Nc1c(O)[nH]c2ccccc12,–,inactive: -11.3%
CN1CCN(c2cc(N3CCc4ccccc4C3)c(F)cc2[N+](=O)[O-])CC1,"inconclusive: 89.1 µM [inhibitor, partial curve, poor fit]",–

SMILES,Potency,"activity change, negative = inhibition"
O=C(O)c1ccc2c(c1)S(=O)(=O)c1cc(N3CCN(c4ncccn4)CC3)ccc1C2=O,"inconclusive: 35.5 µM [inhibitor, single point]",–
CN1CCN(S(=O)(=O)c2ccc(NS(=O)(=O)c3ccccc3)cc2)CC1,"inconclusive: 28.2 µM [inhibitor, partial curve, poor fit]",–
CCCCNC(=O)C[C@@H]1C[C@@]2(C(=O)OC)CCCCC=C2N(CCC2=CCCCC2)C1=O,"inconclusive: 89.1 µM [inhibitor, single point]",–
CCOC(=O)C1C(=O)CC(C)(O)C(C(=O)OCC)C1c1ccc(OC)cc1 (configuration not stated),–,inactive: -6.17%
CC(C)c1nc(NCC2CCCO2)c(C#N)c2c1CCCC2 (configuration not stated),–,inactive: -6.55%
O=S(=O)(NCCO)c1ccc(Cl)c2ccccc12,"inconclusive: 0.0891 µM [inhibitor, full curve, poor fit]",–
CCc1ccc2occ(CC(=O)N(Cc3ccc(F)cc3)C3CCS(=O)(=O)C3)c2c1 (configuration not stated),–,inactive: 4.96%
Cc1nc2nc3ccn(CCN4CCOCC4)c(=O)c3c(-c3ccccc3)n2n1,"inconclusive: 50.1 µM [inhibitor, single point]",–
Oc1ccc(C(=S)N2CCN(c3cccc(Cl)c3)CC2)cc1,"inconclusive: 39.8 µM [inhibitor, partial curve, poor fit]",–
CC(=O)Nc1ccc(S(=O)(=O)NC2CC3CCC2C3)cc1 (configuration not stated),"inconclusive: 112 µM [inhibitor, partial curve, poor fit]",–
O=C(CCc1ccccc1)Nc1ccc(-c2nnc3n2CCCC3)cc1,–,inactive: 40.8%
CCN1CCN(c2nc3ccccn3c(=O)c2/C=C(\C#N)S(=O)(=O)c2ccccc2)CC1,"inconclusive: 17.8 µM [inhibitor, partial curve, poor fit]",–
CC(=O)NCCNc1ncncc1-c1ccccc1C,"inconclusive: 31.6 µM [inhibitor, partial curve, poor fit]",–
O=C(O/N=C1\CCS(=O)(=O)c2sccc21)c1c(F)cccc1F,–,inactive: 0%
O=C(Nc1ccccc1C1CC1)C1CC1,–,inactive: 28.9%
COc1ccc(OC)c(NS(=O)(=O)c2cc(C(=O)N3CCCCC3)cs2)c1,"inconclusive: 50.1 µM [inhibitor, partial curve, poor fit]",–
Cc1sc(N2CCCC2)nc1-c1ccc(NS(C)(=O)=O)cc1,active: 35.5 µM,–
CCCCSCCCNC(=O)C1CCN(Cc2nc(-c3cccc(Br)c3)oc2C)CC1,"inconclusive: 50.1 µM [inhibitor, partial curve, poor fit]",–
O=S(=O)(Nc1cccc2c1CCCC2)c1ccc(F)c(F)c1,–,inactive: -16.9%
COC(=O)CNC(=O)C1Nc2ccccc2C2C=CCC12 (configuration not stated),–,inactive: -17.4%
Cc1ccccc1Cn1cccc1CNC(=O)NC12CC3CC(CC(C3)C1)C2,"inconclusive: 15.8 µM [inhibitor, full curve, poor fit]",–
